# Assay results from article PMC3467072 (Nucleic Acids Research, 2012).
# Target: Wild-type Rv3066 (Mycobacterium tuberculosis, UniProt I6X658)
# Assay: biochemical
smiles,measurement,value
CSc1ccc2c(c1)N(CCC1CCCCN1C)c1ccccc1S2 (stereo not shown) [thioridazine],Kd,212 ± 34.2 µM
